Results deposited as PubChem BioAssay AID1259405 (NCATS, 2018).

- Screen: 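Silenced genes that increase secreted GFP made by CHO cells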 (primary screen)
- Cell system: Chinese hamster CHO-K1 ovary cells with stable secreted eGFP expression
- Reagents: single siRNA against mouse genes, 0.8 pmol siRNA per well (2 µl of 400 nM stock)
- Duration: 3 days
- Measurement: 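Percent of the per-plate non-targeting control median for intracellular GFP per well by laser scanning cytometry and for cell viability by ATP luminescence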
- Direction: GFP, % of control: higher = more GFP per well, higher productivity; viability (ATP), % of control: higher = more viable cells (more ATP)
- Rule for the call: 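Called active when intracellular GFP, relative to negative control, is at or above 120%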
The deposit covers about 50,000 reagents; shown is an unselected part. Over the whole deposit, about 4,000 (8%) were called active. 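Mouse siRNA library applied to hamster cells; one well for each siRNA.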 Reagents against one gene are numbered here. Reagent sequences are not shown.

Or1o11 (olfactory receptor family 1 subfamily O member 11) #1
- GFP, % of control: 25.3
- viability (ATP), % of control: 17.4
- call: inactive

Or1o11 (olfactory receptor family 1 subfamily O member 11) #2
- GFP, % of control: 98.8
- viability (ATP), % of control: 49.9
- call: inactive

Or1o11 (olfactory receptor family 1 subfamily O member 11) #3
- GFP, % of control: 32.5
- viability (ATP), % of control: 40.9
- call: inactive

Lzic (leucine zipper and CTNNBIP1 domain containing) #1
- GFP, % of control: 95.2
- viability (ATP), % of control: 58.1
- call: inactive

Lzic (leucine zipper and CTNNBIP1 domain containing) #2
- GFP, % of control: 87
- viability (ATP), % of control: 54.3
- call: inactive

Lzic (leucine zipper and CTNNBIP1 domain containing) #3
- GFP, % of control: 82.5
- viability (ATP), % of control: 49.1
- call: inactive

Polr1b (polymerase (RNA) I polypeptide B) #1
- GFP, % of control: 73.2
- viability (ATP), % of control: 75
- call: inactive

Polr1b (polymerase (RNA) I polypeptide B) #2
- GFP, % of control: 100
- viability (ATP), % of control: 112
- call: inactive

Ces1e (carboxylesterase 1E) #1
- GFP, % of control: 76.1
- viability (ATP), % of control: 39.2
- call: inactive

Ces1e (carboxylesterase 1E) #2
- GFP, % of control: 70.4
- viability (ATP), % of control: 78.4
- call: inactive

Ces1e (carboxylesterase 1E) #3
- GFP, % of control: 54.6
- viability (ATP), % of control: 60.1
- call: inactive

Only “GFP, % of control” (5 entries from above):
Lzic (leucine zipper and CTNNBIP1 domain containing) #1	95.2
Lzic (leucine zipper and CTNNBIP1 domain containing) #2	87
Lzic (leucine zipper and CTNNBIP1 domain containing) #3	82.5
Polr1b (polymerase (RNA) I polypeptide B) #1	73.2
Polr1b (polymerase (RNA) I polypeptide B) #2	100

More entries follow:
Emx2 (empty spiracles homeobox 2) #1
- GFP, % of control: 109
- viability (ATP), % of control: 114
- call: inactive

Emx2 (empty spiracles homeobox 2) #2
- GFP, % of control: 145
- viability (ATP), % of control: 117
- call: active

Emx2 (empty spiracles homeobox 2) #3
- GFP, % of control: 60
- viability (ATP), % of control: 61.4
- call: inactive

Emx2 (empty spiracles homeobox 2) #4
- GFP, % of control: 108
- viability (ATP), % of control: 83.7
- call: inactive

Emx2 (empty spiracles homeobox 2) #5
- GFP, % of control: 91.5
- viability (ATP), % of control: 71.7
- call: inactive

Emx2 (empty spiracles homeobox 2) #6
- GFP, % of control: 123
- viability (ATP), % of control: 89.1
- call: active

Tbc1d8 (TBC1 domain family, member 8) #1
- GFP, % of control: 120
- viability (ATP), % of control: 77.9
- call: inactive

Tbc1d8 (TBC1 domain family, member 8) #2
- GFP, % of control: 96.8
- viability (ATP), % of control: 84.9
- call: inactive

Tbc1d8 (TBC1 domain family, member 8) #3
- GFP, % of control: 73.9
- viability (ATP), % of control: 77.1
- call: inactive

Rgl3 (ral guanine nucleotide dissociation stimulator-like 3) #1
- GFP, % of control: 71.9
- viability (ATP), % of control: 59.3
- call: inactive

Rgl3 (ral guanine nucleotide dissociation stimulator-like 3) #2
- GFP, % of control: 68.7
- viability (ATP), % of control: 105
- call: inactive

Rgl3 (ral guanine nucleotide dissociation stimulator-like 3) #3
- GFP, % of control: 62.1
- viability (ATP), % of control: 60.7
- call: inactive

Rtl5 (retrotransposon Gag like 5) #1
- GFP, % of control: 81.9
- viability (ATP), % of control: 74.9
- call: inactive

Rtl5 (retrotransposon Gag like 5) #2
- GFP, % of control: 116
- viability (ATP), % of control: 113
- call: inactive

Rtl5 (retrotransposon Gag like 5) #3
- GFP, % of control: 85.5
- viability (ATP), % of control: 107
- call: inactive

Rif1 (replication timing regulatory factor 1) #1
- GFP, % of control: 48.7
- viability (ATP), % of control: 27.9
- call: inactive

Rif1 (replication timing regulatory factor 1) #2
- GFP, % of control: 75.1
- viability (ATP), % of control: 73.2
- call: inactive

Rif1 (replication timing regulatory factor 1) #3
- GFP, % of control: 56
- viability (ATP), % of control: 86.9
- call: inactive
